No constants are given. Whether binding was seen depends on the method and setting. Binding seen in cells or lysates may run through a third protein. Some entries that bind do so weakly or less than the wild type. For part of these data: Where a sequence is shown, tags or fusion partners need not be part of it.

The chains behind the UniProt entries cited, without tags or fusion partners.
UniProt Q9Y572: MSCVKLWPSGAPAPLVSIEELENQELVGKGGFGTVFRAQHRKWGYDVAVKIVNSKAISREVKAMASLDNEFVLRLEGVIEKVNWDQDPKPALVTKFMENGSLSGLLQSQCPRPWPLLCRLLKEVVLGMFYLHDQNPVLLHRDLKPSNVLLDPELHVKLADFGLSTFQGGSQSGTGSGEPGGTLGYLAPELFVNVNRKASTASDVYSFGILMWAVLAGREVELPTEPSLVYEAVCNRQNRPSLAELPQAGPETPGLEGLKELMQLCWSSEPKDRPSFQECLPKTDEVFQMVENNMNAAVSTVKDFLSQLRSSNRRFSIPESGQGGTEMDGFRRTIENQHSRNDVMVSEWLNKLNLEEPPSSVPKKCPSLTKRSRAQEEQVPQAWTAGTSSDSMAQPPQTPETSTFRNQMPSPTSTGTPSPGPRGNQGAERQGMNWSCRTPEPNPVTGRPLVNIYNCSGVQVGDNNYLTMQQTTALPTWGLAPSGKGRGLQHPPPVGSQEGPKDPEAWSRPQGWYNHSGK
UniProt Q13546: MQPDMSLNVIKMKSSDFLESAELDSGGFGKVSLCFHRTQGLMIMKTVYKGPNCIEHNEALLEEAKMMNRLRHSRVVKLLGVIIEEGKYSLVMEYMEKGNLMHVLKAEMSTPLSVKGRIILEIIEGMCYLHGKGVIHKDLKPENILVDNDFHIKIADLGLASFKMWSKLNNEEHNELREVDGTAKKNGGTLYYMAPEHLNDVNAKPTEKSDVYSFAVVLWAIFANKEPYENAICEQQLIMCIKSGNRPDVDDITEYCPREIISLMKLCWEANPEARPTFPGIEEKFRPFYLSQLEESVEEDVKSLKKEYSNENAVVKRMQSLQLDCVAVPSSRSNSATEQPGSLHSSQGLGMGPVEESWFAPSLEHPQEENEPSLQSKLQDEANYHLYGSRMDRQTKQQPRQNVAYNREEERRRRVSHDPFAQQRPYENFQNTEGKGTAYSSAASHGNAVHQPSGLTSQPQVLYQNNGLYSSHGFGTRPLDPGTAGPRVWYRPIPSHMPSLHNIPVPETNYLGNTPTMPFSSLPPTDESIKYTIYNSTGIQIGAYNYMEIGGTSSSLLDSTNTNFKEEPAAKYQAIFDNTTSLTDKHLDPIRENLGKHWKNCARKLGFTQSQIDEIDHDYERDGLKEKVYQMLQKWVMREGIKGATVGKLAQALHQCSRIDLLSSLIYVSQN

Here are results for six molecules from PMC10070107.

Test [1] concerns the target T1, recombinant glutathione-S-transferase-fused (GST-fused) Gab1 protein, full length (UniProt Q13480).
T1 sequence: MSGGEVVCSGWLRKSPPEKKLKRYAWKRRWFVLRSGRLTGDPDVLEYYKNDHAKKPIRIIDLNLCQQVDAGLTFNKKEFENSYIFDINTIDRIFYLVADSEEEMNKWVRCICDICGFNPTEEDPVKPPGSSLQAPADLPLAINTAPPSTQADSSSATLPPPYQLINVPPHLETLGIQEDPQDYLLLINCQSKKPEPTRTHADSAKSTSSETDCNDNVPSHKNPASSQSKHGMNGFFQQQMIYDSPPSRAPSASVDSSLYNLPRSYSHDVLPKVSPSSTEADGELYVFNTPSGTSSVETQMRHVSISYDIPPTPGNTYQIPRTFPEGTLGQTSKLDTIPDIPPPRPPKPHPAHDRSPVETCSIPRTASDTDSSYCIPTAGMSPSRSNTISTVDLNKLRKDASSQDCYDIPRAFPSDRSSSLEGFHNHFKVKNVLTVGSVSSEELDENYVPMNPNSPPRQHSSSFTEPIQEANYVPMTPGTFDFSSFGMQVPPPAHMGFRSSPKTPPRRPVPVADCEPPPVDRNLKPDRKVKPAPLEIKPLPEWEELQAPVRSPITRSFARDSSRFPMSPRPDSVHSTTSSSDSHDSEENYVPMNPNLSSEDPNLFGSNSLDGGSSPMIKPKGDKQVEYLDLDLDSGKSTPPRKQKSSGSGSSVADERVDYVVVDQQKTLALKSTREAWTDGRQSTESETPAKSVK
The experiment in a line: pull-down; purified GST-Gab1 bound to glutathione-sepharose incubated overnight at 4°C with cleared HEK293T lysates with or without RIPK3 overexpression; washed 3 times with lysis buffer; immunoblotting with anti-RIPK3 antibody; only the target purified. (In western blotting, separated proteins are transferred to a membrane and probed.)

In test [2] the target is T2, Gab1-Flag (UniProt Q13480).
T2 sequence: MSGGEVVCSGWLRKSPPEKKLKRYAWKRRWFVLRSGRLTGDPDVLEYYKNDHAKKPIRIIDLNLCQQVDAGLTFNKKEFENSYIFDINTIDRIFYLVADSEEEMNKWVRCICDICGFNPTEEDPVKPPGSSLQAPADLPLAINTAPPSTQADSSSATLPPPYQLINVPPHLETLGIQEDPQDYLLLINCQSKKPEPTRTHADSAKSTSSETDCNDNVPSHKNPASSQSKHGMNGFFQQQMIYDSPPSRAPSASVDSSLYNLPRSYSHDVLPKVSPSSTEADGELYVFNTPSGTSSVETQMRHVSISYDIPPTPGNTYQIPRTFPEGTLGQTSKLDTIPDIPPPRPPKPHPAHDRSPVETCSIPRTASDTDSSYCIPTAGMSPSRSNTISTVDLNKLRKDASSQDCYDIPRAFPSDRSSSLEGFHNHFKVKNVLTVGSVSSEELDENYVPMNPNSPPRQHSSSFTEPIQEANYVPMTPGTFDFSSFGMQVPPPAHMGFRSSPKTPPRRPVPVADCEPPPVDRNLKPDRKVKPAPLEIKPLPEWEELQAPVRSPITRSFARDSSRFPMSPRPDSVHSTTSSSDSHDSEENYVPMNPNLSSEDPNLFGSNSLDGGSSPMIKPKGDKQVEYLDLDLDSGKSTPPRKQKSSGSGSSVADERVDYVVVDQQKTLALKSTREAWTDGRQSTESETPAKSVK
The experiment in a line: co-IP; HEK293T cells co-transfected for 24 hours (Gab1-Flag with RIPK3-Myc, followed by T/S/Z for 3 hours; Gab1-Flag with AURKA-HA); IP with anti-Flag antibody or anti-IgG, immunoblotting.

For test [3], the target named is receptor-interaction protein kinase 3 (RIPK3), endogenous in HT29 cells (human (endogenous in HT29)) (UniProt Q9Y572). As to the kind of experiment: co-IP; endogenous proteins in total lysates of HT29 cells (control or Gab1-knockdown), with or without T/S/Z for 3 hours; IP with anti-RIPK3 antibody or anti-IgG, immunoblotting.

With “RIPK3 of HEK293T cell lysates without RIPK3 overexpression (from UniProt Q9Y572 1-518)”, the binding entry in test [1] is listed as “binds”.

“RIPK3, full length, overexpressed in HEK293T cells (pull-down) (from UniProt Q9Y572 1-518)”: the binding result in test [1] is “binds”. With RIPK3-Myc (from UniProt Q9Y572 1-518), in test [2], the binding entry is “binds”. Regarding “receptor-interaction protein kinase 1 (RIPK1), endogenous in HT29 cells (from UniProt Q13546 1-671)”, in test [3], the binding entry was “binds”.

B1: AURKA-HA (protein, UniProt O14965 1-403)
chain: MDRSKENCISGPVKATAPVGGPKRVLVTQQFPCQNPLPVNSGQAQRVLCPSNSSQRIPLQAQKLVSSHKPVQNQKQKQLQATSVPHPVSRPLNNTQKSKQPLPSAPENNPEEELASKQKNEESKKRQWALEDFEIGRPLGKGKFGNVYLAREKQSKFILALKVLFKAQLEKAGVEHQLRREVEIQSHLRHPNILRLYGYFHDATRVYLILEYAPLGTVYRELQKLSKFDEQRTATYITELANALSYCHSKRVIHRDIKPENLLLGSAGELKIADFGWSVHAPSSRRTTLCGTLDYLPPEMIEGRMHDEKVDLWSLGVLCYEFLVGKPPFEANTYQETYKRISRVEFTFPDFVTEGARDLISRLLKHNPSQRPMLREVLEHPWITANSSKPSNCQNKESASKQS
B1: the binding result in test [2] was “binds”.

B2: Grb2-associated binder 1 (Gab1), endogenous in HT29 cells (protein, UniProt Q13480 1-694)
chain: MSGGEVVCSGWLRKSPPEKKLKRYAWKRRWFVLRSGRLTGDPDVLEYYKNDHAKKPIRIIDLNLCQQVDAGLTFNKKEFENSYIFDINTIDRIFYLVADSEEEMNKWVRCICDICGFNPTEEDPVKPPGSSLQAPADLPLAINTAPPSTQADSSSATLPPPYQLINVPPHLETLGIQEDPQDYLLLINCQSKKPEPTRTHADSAKSTSSETDCNDNVPSHKNPASSQSKHGMNGFFQQQMIYDSPPSRAPSASVDSSLYNLPRSYSHDVLPKVSPSSTEADGELYVFNTPSGTSSVETQMRHVSISYDIPPTPGNTYQIPRTFPEGTLGQTSKLDTIPDIPPPRPPKPHPAHDRSPVETCSIPRTASDTDSSYCIPTAGMSPSRSNTISTVDLNKLRKDASSQDCYDIPRAFPSDRSSSLEGFHNHFKVKNVLTVGSVSSEELDENYVPMNPNSPPRQHSSSFTEPIQEANYVPMTPGTFDFSSFGMQVPPPAHMGFRSSPKTPPRRPVPVADCEPPPVDRNLKPDRKVKPAPLEIKPLPEWEELQAPVRSPITRSFARDSSRFPMSPRPDSVHSTTSSSDSHDSEENYVPMNPNLSSEDPNLFGSNSLDGGSSPMIKPKGDKQVEYLDLDLDSGKSTPPRKQKSSGSGSSVADERVDYVVVDQQKTLALKSTREAWTDGRQSTESETPAKSVK
With B2, the binding entry in test [3] is “binds”.
